Results as given in PMC6548130.
Results are given in words; binding and its absence hold for the method and conditions named. In cells and extracts the contact can be indirect. Binding can be weak; no strength is given.

Biological target: T1, VN-Atg17 (yeast) (UniProt Q06410)
T1 sequence: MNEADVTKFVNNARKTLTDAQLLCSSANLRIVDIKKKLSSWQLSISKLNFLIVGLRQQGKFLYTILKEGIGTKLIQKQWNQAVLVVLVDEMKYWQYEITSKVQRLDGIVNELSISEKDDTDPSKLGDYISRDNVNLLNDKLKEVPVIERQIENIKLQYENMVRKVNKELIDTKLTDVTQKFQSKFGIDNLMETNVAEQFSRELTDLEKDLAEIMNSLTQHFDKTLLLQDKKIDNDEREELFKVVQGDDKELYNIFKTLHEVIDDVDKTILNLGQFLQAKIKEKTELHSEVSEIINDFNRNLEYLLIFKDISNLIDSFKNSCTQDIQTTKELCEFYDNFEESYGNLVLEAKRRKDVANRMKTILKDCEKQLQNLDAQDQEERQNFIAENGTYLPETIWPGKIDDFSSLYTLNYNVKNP
Experiment: split reporter; BiFC with the two halves of Venus: pVC-SNF7 and pVN-ATGX cotransformed in yeast cells, expression induced in SD-Ura-His-Met for 1.5 h, starved in SD-N for 30 min, YFP dots seen by live-cell fluorescence microscopy; Atg17-Snf7 also tested in vps9Δ, vps21Δ, vps8Δ, pep12Δ, ypt7Δ and vps39Δ cells (dependent on the Rab5 module, not on Ypt7 or Vps39)

membrane-binding domain of Snf7 (BiFC construct) (yeast) (domain or fragment)
binding: binds
